We go through 1 molecule from PMC6292692.

Assay [1] has as its target T1, RNF145 (RING Finger Protein 145), endogenous (human (endogenous in HeLa)) (UniProt Q96MT1).
T1 sequence: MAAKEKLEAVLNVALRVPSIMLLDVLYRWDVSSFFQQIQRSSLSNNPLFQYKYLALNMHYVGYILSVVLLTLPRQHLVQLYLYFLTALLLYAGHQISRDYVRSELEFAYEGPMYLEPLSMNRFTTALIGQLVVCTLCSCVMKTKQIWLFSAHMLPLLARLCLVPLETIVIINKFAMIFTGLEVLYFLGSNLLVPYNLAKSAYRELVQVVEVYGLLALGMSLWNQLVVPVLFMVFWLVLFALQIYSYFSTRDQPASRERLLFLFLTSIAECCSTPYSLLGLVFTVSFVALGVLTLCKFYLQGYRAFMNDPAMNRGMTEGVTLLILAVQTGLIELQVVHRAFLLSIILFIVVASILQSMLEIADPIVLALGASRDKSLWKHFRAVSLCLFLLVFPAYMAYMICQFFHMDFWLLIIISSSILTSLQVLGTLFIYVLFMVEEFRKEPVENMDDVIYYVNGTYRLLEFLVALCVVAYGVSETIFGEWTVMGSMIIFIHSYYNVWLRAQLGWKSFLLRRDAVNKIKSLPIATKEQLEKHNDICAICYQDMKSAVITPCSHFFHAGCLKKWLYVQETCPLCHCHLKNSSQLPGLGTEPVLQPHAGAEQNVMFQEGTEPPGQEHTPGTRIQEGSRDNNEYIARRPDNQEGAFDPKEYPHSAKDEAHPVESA
The assay can be described thus: condition: only sterol-depleted cells (20 hr), no sterols added back; co-IP; as a3 (HeLa WT; ΔUBE2G2 #1), but cells sterol-depleted (20 hr) without sterols added back.

In assay [2] the target is T1, RNF145 (RING Finger Protein 145), endogenous (human (endogenous in HeLa)). The assay can be described thus: co-IP; endogenous RNF145 immunoprecipitated with anti-RNF145 and Protein A-Sepharose from 1% digitonin lysate, 4°C overnight; cells (HeLa WT; ΔUBE2G2 #1, also with gHMGCR or gCTR; HMGCR-Clover HeLa WT with gUBE2G2) sterol-depleted 20 hr, sterols added back 1 hr, with NMS-873 in some panels; partners eluted with 1% Triton X-100; HMGCR and Insig-1 detected by immunoblot. Background: Immunoblotting shows a protein as a band on a membrane.

Results are given in words; binding and its absence hold for the method and conditions named. In cells and extracts the contact can be indirect. Some results given as binding are weak or reduced against the parent protein; the word gives no strength.

B1: Insig-1 (Insulin Induced Gene 1), endogenous (protein, UniProt O15503 1-277)
chain: MPRLHDHFWSCSCAHSARRRGPPRASAAGLAAKVGEMINVSVSGPSLLAAHGAPDADPAPRGRSAAMSGPEPGSPYPNTWHHRLLQRSLVLFSVGVVLALVLNLLQIQRNVTLFPEEVIATIFSSAWWVPPCCGTAAAVVGLLYPCIDSHLGEPHKFKREWASVMRCIAVFVGINHASAKLDFANNVQLSLTLAALSLGLWWTFDRSRSGLGLGITIAFLATLITQFLVYNGVYQYTSPDFLYIRSWLPCIFFSGGVTVGNIGRQLAMGVPEKPHSD
On to B1, for which the figures for the binding result in assay [1] and in assay [2] were “no binding” and “binds”, respectively.
